Test results as given in ChEMBL document CHEMBL4513141, “CO-ADD screening of NIH (USA) - Clinical Collection” (2021).
The other results are listed elsewhere or left out. Potency and affinity values are given separately. Square brackets hold non-standard residues; d marks the D form. Peptide text beside a SMILES is read from it. pGlu = O=C1CC[C@@H](C(=O)O)N1; Thz = O=C(O)[C@@H]1CSCN1

Tested on: Pseudomonas aeruginosa
Details: Concentration 20 uM; ASSAY_TEST Inhibition of Bacterial Growth; detection method Absorption (OD600); MEDIA CAMHB; plate type 384well; NBS; CORNING #3640; time 18 hr

| SMILES | Inhibition [%] |
| --- | --- |
| CC(COc1ccccc1)NC(C)C(O)c1ccc(O)cc1.Cl (centres undefined) [ISOXSUPRINE HYDROCHLORIDE] | 1.64 |
| Cl.O=C(O)/C=C/c1ccc(Cn2ccnc2)cc1 | 2.38 |
| CC(CN1c2ccccc2Sc2ccccc21)N(C)C.Cl (centres undefined) [PROMETHAZINE HYDROCHLORIDE] | 14.84 |
| CCOC(=O)O[C@]1(C(=O)OCCl)CC[C@H]2[C@@H]3CCC4=CC(=O)C=C[C@]4(C)[C@H]3[C@@H](O)C[C@@]21C [LOTEPREDNOL ETABONATE] | 16.35 |
| CCCNC(=O)NS(=O)(=O)c1ccc(Cl)cc1 [CHLORPROPAMIDE] | 18.11 |
| CC[C@H](C)C(=O)O[C@H]1CCC=C2C=C[C@H](C)[C@H](CC[C@@H]3C[C@@H](O)CC(=O)O3)[C@H]21 [MEVASTATIN] | 2.53 |
| CC=CC(=O)N(CC)c1ccccc1C | 1.59 |
| Nc1nc2c(ncn2COC(CO)CO)c(=O)[nH]1 [GANCICLOVIR] | 9.56 |
| Cc1cccc(CCN2CCC(C(=O)c3ccc(NS(C)(=O)=O)cc3)CC2)n1.Cl.Cl | 12 |
| CC(C)NCC(O)COc1ccc(CC(N)=O)cc1 (centres undefined) [ATENOLOL] | 6.08 |
| Cc1[nH]cnc1CN1CCc2c(c3ccccc3n2C)C1=O.Cl [ALOSETRON HYDROCHLORIDE] | 11.96 |
| CCOC(=O)[C@H](CCc1ccccc1)N[C@@H](C)C(=O)N1[C@H](C(=O)O)C[C@@H]2CCC[C@@H]21 | 53.62 |
| Nc1ncnc2c1ncn2[C@@H]1O[C@H](CO)[C@@H](O)[C@@H]1O [VIDARABINE] | 12.75 |
| NC(CO)(CO)CO.O=C(c1ccccc1)c1ccc2n1CCC2C(=O)O (centres undefined) [KETOROLAC TROMETHAMINE] | 16.5 |
| CCOc1cc(N)c(Cl)cc1C(=O)NCC1CN(Cc2ccc(F)cc2)CCO1.O=C(O)CC(O)(CC(=O)O)C(=O)O (centres undefined) [MOSAPRIDE CITRATE] | 12.23 |
| Cl.NC[C@H]1CC[C@H](C(=O)Oc2ccc(CCC(=O)O)cc2)CC1 [CETRAXATE HYDROCHLORIDE] | 11.42 |
| O=C1CC[C@@H](C(=O)N2CSC[C@H]2C(=O)O)N1 [PIDOTIMOD] ([pGlu]-[Thz]-OH) | 34.23 |
| CCC1(c2ccccc2)C(=O)NCNC1=O [PRIMIDONE] | 10.25 |
| NC(N)=Nc1nc(CSCC/C(N)=N/S(N)(=O)=O)cs1 [FAMOTIDINE] | 4.47 |
| CC1=C(/C=C/C(C)=C/C=C/C(C)=C\C(=O)O)C(C)(C)CCC1 [ISOTRETINOIN] | 3.08 |
| CCCCC(=O)OC1(C(=O)CO)CCC2C3CCC4=CC(=O)CCC4(C)C3C(O)CC21C (centres undefined) | 4.02 |
| COc1ccccc1OCC(O)CN1CCN(CC(=O)Nc2c(C)cccc2C)CC1.Cl.Cl (centres undefined) [RANOLAZINE HYDROCHLORIDE] | 12.05 |
| Cc1ccc(S(=O)(=O)NC(=O)NN2CCCCCC2)cc1 [TOLAZAMIDE] | 4.73 |

| SMILES | Inhibition [%] |
| --- | --- |
| Nc1ccn([C@@H]2O[C@H](CO)[C@@H](O)[C@@H]2O)c(=O)n1 [CYTARABINE] | 9.51 |
| CO[C@H]1O[C@@H]2O[C@@]3(C)CC[C@H]4[C@H](C)CC[C@@H]([C@H]1C)[C@@]24OO3 | 12.03 |
| Cl.O=C1[C@H]2CCCC[C@H]2C(=O)N1CCCCN1CCN(c2nsc3ccccc23)CC1 | 11.31 |
| CC(C)c1ccc2c(c1)c(SC(C)(C)C)c(CC(C)(C)C(=O)O)n2Cc1ccc(Cl)cc1 | 7.2 |
| CC1CC2C3CCC4=CC(=O)C=CC4(C)[C@@]3(Cl)C(O)CC2(C)C1(O)C(=O)CO (some centres undefined) | 10.12 |
| CC(Oc1c(Cl)cccc1Cl)C1=NCCN1.Cl (centres undefined) [LOFEXIDINE HYDROCHLORIDE] | 8.67 |
| CC(C)[N+]1(C)C2CCC1CC(OC(=O)C(CO)c1ccccc1)C2.[Br-] (centres undefined) | 9.29 |
| Nc1ccn([C@@H]2CS[C@H](CO)O2)c(=O)n1 [LAMIVUDINE] | 10.87 |
| COc1ccccc1OCC(O)COC(N)=O (centres undefined) [METHOCARBAMOL] | 19.81 |
| Cl.Clc1cccc(Cl)c1NC1=NCCN1 [CLONIDINE HYDROCHLORIDE] | 37.06 |
| COc1ccc([C@@H]2Sc3ccccc3N(CCN(C)C)C(=O)[C@@H]2OC(C)=O)cc1.Cl [DILTIAZEM HYDROCHLORIDE] | 6.94 |
| C[C@H]1C[C@@H]2[C@H]([C@@H](O)C[C@@]3(C)[C@H]2CC[C@]3(O)C(=O)CO)[C@@]2(C)C=CC(=O)C=C12 [METHYLPREDNISOLONE] | 16.45 |
| CC(COc1ccccc1Cc1ccccc1)N1CCCCC1.O=P(O)(O)O (centres undefined) | 11.13 |
| C=C1/C(=C\C=C2/CCC[C@]3(C)[C@@H]([C@H](C)CCCC(C)(C)O)CC[C@@H]23)C[C@@H](O)C[C@@H]1O [CALCITRIOL] | 19.82 |
| CC[C@@H]1C(=O)OC[C@@H]1Cc1cncn1C.Cl [PILOCARPINE HYDROCHLORIDE] | 13.04 |
| CCC(=O)OCC(=O)[C@@]1(OC(=O)CC)[C@@H](C)C[C@H]2[C@@H]3CCC4=CC(=O)C=C[C@]4(C)[C@@]3(Cl)[C@@H](O)C[C@@]21C [BECLOMETHASONE DIPROPIONATE] | 2.46 |
| C#C[C@]1(O)CC[C@H]2[C@@H]3CCC4=Cc5oncc5C[C@]4(C)[C@H]3CC[C@@]21C [DANAZOL] | 3.85 |
| O=C1CCC(N2C(=O)c3ccccc3C2=O)C(=O)N1 (centres undefined) [THALIDOMIDE] | 8.64 |
| CN(C)C(=O)Oc1ccc[n+](C)c1.[Br-] [PYRIDOSTIGMINE BROMIDE] | 13.06 |
| Cc1cccc(Nc2ccccc2C(=O)O)c1C [MEFENAMIC ACID] | 13.19 |
| CC(=O)OCC(=O)[C@@]12OC(C)(C)O[C@@H]1C[C@H]1[C@@H]3C[C@H](F)C4=CC(=O)C=C[C@]4(C)[C@@]3(F)[C@@H](O)C[C@@]12C [FLUOCINONIDE] | 6.76 |
| CC(C)NCC(O)c1cc(O)cc(O)c1 (centres undefined) [METAPROTERENOL] | 4.84 |
| CC[C@H]1OC(=O)[C@H](C)C(=O)[C@H](C)[C@@H](O[C@@H]2O[C@H](C)C[C@H](N(C)C)[C@H]2O)[C@](C)(OC)C[C@@H](C)C(=O)[C@H](C)[C@@H]2N(CCCCn3cnc(-c4cccnc4)c3)C(=O)O[C@@]21C | 3.63 |

| SMILES | Inhibition [%] |
| --- | --- |
| Cn1cnc([N+](=O)[O-])c1Sc1ncnc2[nH]cnc12 [AZATHIOPRINE] | 22.34 |
| OCCN1C[C@H](O)[C@@H](O)[C@H](O)[C@H]1CO [MIGLITOL] | 23.8 |
| COC(=O)C1=C(C)NC(C)=C(C(=O)OC(C)C)C1c1cccc2nonc12 (centres undefined) [ISRADIPINE] | 14.96 |
| CC(=O)SCC(Cc1ccccc1)C(=O)NCC(=O)OCc1ccccc1 (centres undefined) [RACECADOTRIL] | 11.06 |
| CN1CCc2cc(Cl)c(O)cc2[C@@H](c2ccccc2)C1.Cl | 17.85 |
| Nc1nc(O)c2ncn(CCC(CO)CO)c2n1 [PENCICLOVIR] | 16.28 |
| CC[C@H](C)C(=O)O[C@H]1C[C@H](O)C=C2C=C[C@H](C)[C@H](CC[C@@H](O)C[C@@H](O)CC(=O)[O-])[C@H]21.[Na+] [PRAVASTATIN SODIUM] | 24.13 |
| Br.Br.O=C1CC2(CCCC2)CC(=O)N1CCNCC1COc2ccccc2O1 (centres undefined) | 13.7 |
| C[C@]12CCC(=O)C=C1CC[C@@H]1[C@@H]2[C@@H](O)C[C@@]2(C)[C@H]1CC[C@]2(O)C(=O)CO [HYDROCORTISONE] | 10.83 |
| O.OC[C@H]1O[C@@H](n2cnc3c(NC4CCCC4)nc(Cl)nc32)[C@@H](O)C1O (some centres undefined) | 10.94 |
| CCN1CCC[C@H]1CNC(=O)c1c(O)c(Cl)cc(Cl)c1OC [RACLOPRIDE] | 11.03 |
| CSc1ccc2c(c1)N(CCC1CCCCN1C)c1ccccc1S2.Cl (centres undefined) [THIORIDAZINE HYDROCHLORIDE] | 9.76 |
| CCCCC[C@H](O)/C=C/[C@H]1[C@H](O)CC(=O)[C@@H]1CCCCCCC(=O)O [ALPROSTADIL] | 6.38 |
| CC(C)Cc1ccc(C(C)C(=O)O)cc1 (centres undefined) [IBUPROFEN] | 12.43 |
| COC(=O)CCc1ccc(OCC(O)CNC(C)C)cc1.Cl (centres undefined) [ESMOLOL HYDROCHLORIDE] | 7.89 |
| Br.CN(C)CCCC1(c2ccc(F)cc2)OCc2cc(C#N)ccc21 (centres undefined) [CITALOPRAM HYDROBROMIDE] | 20.74 |
| O=C1[C@H](CC[C@H](O)c2ccc(F)cc2)[C@@H](c2ccc(O)cc2)N1c1ccc(F)cc1 [EZETIMIBE] | 24.27 |
| CN(C)CCN(Cc1ccccc1)c1ccccn1.Cl [TRIPELENNAMINE HYDROCHLORIDE] | 4.49 |
| Cc1cnc(C(=O)NCCc2ccc(S(=O)(=O)NC(=O)NC3CCCCC3)cc2)cn1 [GLIPIZIDE] | 16.96 |
| O=C(O)COCCN1CCN([C@H](c2ccccc2)c2ccc(Cl)cc2)CC1 [LEVOCETIRIZINE] | 6.8 |
| CN(C)CC[C@@H](c1ccc(Br)cc1)c1ccccn1.O=C(O)/C=C\C(=O)O [DEXBROMPHENIRAMINE MALEATE] | 6.71 |
| CCCN1CCCC[C@H]1C(=O)Nc1c(C)cccc1C.Cl [ROPIVACAINE HYDROCHLORIDE] | 18.3 |
| CN(C/C=C/C#CC(C)(C)C)Cc1cccc2ccccc12.Cl [TERBINAFINE HYDROCHLORIDE] | 9.15 |

Reformatted as tab-separated lines: part of the list above
SMILES	Inhibition [%]
CC1CC2C3CCC4=CC(=O)C=CC4(C)[C@@]3(Cl)C(O)CC2(C)C1(O)C(=O)CO (some centres undefined)	10.12
O=C(O)COCCN1CCN([C@H](c2ccccc2)c2ccc(Cl)cc2)CC1 [LEVOCETIRIZINE]	6.8

Three structures already listed, sorted by SMILES length, high to low:

| SMILES | Inhibition [%] |
| --- | --- |
| CCCCC[C@H](O)/C=C/[C@H]1[C@H](O)CC(=O)[C@@H]1CCCCCCC(=O)O [ALPROSTADIL] | 6.38 |
| O=C(O)COCCN1CCN([C@H](c2ccccc2)c2ccc(Cl)cc2)CC1 [LEVOCETIRIZINE] | 6.8 |
| Cn1cnc([N+](=O)[O-])c1Sc1ncnc2[nH]cnc12 [AZATHIOPRINE] | 22.34 |
